Some of the results follow. Small differences around the control level are noise.

Protein sequences, listed by entry. Tags and fused reporters are not part of them. Lines headed by an entry give the natural chain unless they say otherwise; changes in a name come on top.
UniProt Q5THJ4: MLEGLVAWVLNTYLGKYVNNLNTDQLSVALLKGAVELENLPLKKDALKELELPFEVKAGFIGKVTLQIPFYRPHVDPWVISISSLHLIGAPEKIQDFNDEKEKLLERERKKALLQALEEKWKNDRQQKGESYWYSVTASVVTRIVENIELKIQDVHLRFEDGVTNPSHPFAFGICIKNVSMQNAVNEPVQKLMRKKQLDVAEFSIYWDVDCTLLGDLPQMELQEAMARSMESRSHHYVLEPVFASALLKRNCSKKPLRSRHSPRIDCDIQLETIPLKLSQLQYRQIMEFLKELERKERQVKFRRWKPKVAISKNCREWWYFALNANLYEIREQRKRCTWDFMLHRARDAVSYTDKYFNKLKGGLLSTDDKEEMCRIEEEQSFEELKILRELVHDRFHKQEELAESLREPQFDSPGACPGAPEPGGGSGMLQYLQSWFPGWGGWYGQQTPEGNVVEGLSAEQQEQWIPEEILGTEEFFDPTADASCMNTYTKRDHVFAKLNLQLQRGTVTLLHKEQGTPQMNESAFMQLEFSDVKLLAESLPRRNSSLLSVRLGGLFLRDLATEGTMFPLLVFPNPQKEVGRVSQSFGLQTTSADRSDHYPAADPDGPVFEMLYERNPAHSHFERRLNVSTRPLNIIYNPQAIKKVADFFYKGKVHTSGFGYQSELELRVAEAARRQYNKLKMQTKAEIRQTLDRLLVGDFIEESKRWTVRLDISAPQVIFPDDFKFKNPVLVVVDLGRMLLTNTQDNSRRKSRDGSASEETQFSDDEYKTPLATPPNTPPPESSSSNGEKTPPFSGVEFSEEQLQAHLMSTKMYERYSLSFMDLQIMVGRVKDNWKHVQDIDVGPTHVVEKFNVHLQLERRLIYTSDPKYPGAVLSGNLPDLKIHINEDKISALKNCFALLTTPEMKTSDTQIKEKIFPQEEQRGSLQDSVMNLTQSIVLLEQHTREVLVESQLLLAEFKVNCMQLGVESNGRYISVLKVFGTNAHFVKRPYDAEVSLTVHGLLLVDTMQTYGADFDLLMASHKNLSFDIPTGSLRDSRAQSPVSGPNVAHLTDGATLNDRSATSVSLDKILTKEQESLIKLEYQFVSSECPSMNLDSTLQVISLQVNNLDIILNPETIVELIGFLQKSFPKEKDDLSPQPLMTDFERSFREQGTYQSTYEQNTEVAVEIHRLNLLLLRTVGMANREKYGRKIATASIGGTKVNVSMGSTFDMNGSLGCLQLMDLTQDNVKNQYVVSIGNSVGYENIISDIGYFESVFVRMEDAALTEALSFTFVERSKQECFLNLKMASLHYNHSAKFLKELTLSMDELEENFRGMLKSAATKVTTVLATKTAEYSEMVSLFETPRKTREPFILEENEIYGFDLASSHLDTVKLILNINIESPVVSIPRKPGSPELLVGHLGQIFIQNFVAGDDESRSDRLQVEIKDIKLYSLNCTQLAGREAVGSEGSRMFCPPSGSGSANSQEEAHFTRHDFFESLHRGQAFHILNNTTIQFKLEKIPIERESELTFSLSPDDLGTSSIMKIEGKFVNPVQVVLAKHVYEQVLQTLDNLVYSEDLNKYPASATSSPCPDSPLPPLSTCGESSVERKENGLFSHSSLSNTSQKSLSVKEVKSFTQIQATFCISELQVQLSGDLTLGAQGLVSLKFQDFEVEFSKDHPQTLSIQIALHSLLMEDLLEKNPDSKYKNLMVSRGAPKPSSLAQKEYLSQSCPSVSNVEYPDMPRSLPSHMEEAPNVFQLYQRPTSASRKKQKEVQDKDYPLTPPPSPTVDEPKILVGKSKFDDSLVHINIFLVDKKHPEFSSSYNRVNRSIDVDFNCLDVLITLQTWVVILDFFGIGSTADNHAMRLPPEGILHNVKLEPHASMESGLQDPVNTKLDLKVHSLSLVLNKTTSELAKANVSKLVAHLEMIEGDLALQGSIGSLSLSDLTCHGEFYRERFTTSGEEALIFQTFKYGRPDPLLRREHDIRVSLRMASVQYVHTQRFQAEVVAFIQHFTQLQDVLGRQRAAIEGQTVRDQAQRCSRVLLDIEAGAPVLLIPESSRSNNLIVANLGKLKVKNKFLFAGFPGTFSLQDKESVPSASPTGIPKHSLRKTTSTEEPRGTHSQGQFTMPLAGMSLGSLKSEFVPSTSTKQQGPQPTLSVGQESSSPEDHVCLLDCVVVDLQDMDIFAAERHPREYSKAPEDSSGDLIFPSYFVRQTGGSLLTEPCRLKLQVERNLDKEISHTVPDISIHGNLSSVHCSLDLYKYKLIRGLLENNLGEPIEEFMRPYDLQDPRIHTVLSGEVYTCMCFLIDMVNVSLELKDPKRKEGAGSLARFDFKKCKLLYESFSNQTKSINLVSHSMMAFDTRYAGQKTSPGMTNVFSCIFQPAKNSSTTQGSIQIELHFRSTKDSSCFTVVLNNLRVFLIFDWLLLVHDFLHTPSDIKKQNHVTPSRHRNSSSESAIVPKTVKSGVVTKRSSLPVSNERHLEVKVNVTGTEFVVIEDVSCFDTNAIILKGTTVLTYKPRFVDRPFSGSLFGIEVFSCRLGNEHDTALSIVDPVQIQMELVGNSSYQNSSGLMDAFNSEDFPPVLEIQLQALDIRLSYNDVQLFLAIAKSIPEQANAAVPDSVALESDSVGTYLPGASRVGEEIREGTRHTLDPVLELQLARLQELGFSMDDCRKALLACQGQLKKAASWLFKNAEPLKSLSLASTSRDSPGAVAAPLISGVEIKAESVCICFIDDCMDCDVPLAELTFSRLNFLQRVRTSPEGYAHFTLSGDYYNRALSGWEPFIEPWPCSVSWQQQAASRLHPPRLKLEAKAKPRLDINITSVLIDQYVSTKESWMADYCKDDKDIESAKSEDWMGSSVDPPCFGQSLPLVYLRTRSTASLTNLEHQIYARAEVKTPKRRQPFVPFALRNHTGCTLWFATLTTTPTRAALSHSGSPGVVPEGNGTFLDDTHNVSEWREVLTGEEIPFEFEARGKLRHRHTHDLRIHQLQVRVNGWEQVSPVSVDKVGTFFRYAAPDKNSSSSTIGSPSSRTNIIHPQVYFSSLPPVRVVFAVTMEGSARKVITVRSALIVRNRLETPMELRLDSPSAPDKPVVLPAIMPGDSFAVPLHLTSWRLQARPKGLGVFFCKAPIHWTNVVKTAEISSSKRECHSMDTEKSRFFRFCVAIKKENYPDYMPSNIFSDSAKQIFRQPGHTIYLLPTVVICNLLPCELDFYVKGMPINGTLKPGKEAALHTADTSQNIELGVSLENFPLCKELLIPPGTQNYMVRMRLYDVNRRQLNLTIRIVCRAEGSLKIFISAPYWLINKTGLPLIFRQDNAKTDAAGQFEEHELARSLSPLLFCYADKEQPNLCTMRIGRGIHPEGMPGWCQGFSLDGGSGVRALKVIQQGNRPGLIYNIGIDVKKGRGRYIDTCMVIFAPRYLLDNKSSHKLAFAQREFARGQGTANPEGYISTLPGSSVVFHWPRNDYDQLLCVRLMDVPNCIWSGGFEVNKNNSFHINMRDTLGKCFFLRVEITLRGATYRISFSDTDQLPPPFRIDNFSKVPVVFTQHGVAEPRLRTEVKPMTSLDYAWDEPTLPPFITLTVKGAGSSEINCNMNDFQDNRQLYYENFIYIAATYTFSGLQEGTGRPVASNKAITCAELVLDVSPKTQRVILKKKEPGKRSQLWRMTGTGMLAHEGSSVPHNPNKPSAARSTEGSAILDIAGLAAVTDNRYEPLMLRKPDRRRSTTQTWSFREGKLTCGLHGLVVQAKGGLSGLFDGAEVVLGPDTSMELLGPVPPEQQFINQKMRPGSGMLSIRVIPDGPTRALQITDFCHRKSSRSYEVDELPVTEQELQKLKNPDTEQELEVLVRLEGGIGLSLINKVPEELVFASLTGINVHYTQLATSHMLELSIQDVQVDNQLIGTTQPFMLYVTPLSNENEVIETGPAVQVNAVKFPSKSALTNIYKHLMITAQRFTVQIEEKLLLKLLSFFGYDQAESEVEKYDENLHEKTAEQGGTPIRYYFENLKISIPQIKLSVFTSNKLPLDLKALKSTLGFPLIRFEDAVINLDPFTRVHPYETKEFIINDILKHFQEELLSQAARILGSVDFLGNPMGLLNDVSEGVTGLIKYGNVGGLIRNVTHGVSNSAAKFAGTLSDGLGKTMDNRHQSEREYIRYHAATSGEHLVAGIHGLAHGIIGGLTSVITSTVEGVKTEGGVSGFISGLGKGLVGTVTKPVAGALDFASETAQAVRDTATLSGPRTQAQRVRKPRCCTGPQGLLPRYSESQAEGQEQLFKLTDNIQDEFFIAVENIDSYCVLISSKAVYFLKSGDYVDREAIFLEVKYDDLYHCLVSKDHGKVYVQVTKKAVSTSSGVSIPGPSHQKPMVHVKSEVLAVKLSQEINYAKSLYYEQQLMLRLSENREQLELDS
UniProt Q4G0S7: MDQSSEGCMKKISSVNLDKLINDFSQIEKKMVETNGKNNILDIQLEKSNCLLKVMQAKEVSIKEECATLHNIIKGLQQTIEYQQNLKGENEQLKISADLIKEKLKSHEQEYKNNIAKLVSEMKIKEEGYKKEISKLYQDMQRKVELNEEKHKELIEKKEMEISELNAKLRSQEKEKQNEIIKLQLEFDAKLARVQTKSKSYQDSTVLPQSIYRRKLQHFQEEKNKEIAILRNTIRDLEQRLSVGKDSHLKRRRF
UniProt Q49AG3: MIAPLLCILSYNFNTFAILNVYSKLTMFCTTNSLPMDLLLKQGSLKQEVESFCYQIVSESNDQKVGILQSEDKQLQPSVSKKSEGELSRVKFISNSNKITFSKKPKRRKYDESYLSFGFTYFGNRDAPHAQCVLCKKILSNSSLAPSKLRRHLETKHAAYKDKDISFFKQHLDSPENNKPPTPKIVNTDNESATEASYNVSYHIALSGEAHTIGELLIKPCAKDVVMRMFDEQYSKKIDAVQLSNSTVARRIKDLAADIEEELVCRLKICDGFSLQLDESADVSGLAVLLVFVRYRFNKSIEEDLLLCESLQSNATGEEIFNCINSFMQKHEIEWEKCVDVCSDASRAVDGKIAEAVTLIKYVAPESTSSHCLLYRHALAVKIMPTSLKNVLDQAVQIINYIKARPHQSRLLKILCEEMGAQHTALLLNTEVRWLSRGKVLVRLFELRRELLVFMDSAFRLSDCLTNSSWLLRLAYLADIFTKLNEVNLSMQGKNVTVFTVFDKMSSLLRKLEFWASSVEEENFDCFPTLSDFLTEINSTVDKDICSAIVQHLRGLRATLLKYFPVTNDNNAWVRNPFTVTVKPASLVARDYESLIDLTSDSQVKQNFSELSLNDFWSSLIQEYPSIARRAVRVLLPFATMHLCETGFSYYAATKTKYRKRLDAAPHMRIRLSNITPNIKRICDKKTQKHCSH
UniProt Q4G176: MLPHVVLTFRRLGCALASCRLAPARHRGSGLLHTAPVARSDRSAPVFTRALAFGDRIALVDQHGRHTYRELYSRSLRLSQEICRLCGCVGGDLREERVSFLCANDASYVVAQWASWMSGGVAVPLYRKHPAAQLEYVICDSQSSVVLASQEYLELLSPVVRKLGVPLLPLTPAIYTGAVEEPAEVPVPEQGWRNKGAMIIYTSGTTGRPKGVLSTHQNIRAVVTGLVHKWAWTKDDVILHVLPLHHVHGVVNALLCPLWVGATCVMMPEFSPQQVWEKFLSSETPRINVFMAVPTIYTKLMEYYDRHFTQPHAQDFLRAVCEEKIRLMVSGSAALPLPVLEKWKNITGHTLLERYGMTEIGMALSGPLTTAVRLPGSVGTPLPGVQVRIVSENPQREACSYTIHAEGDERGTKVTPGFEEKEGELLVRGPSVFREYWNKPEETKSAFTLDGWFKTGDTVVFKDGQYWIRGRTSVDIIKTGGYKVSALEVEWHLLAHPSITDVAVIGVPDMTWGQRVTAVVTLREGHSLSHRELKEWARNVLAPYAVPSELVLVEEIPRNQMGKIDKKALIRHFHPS
UniProt Q53S33: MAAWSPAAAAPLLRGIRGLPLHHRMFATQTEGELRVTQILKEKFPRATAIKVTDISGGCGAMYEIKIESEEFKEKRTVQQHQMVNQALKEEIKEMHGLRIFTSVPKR
UniProt Q5TFE4: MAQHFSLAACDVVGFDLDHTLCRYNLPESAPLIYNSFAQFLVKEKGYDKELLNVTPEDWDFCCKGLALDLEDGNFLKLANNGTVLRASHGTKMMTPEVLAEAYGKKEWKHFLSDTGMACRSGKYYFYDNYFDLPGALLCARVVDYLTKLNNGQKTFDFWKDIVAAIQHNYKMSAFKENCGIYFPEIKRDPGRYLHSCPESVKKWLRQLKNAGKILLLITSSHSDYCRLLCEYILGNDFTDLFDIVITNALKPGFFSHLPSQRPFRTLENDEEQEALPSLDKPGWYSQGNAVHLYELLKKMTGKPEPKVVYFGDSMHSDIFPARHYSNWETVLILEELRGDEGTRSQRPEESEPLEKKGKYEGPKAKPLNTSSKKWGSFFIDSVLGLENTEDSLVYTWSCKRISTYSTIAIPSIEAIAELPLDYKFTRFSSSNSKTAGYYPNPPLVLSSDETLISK

Compound in this assay: Cc1nc(Nc2ncc(C(=O)Nc3c(C)cccc3Cl)s2)cc(N2CCN(CCO)CC2)n1 [dasatinib]
Briefly: log2 fold change of tryptic peptide abundance, ligand vs vehicle (limited proteolysis) (log2 ratio); higher = more trypsin-susceptible (destabilized). The following applies: ligand concentration: 5 uM; sample: K562 cleared lysate.
For “UniProt Q5T5D7 (peptide sequence: NLISVGCPITK, peptide start residue: 43)”, the log2 fold change came to 0.0101.

With “ALDH1L2 (peptide sequence: LGFTGSTPIGK, peptide start residue: 667) (UniProt Q3SY69)”, the log2 fold change was found to be 0.503.

“MINDY4 (peptide sequence: GMMSGPIASSPQDSFHR, peptide start residue: 210) (UniProt Q4G0A6)”: the log2 fold change was 0.258.

With “UniProt Q3YBR2 (peptide sequence: CLYTCQIK, peptide start residue: 232)”, the log2 fold change was -0.2.

Consider “VPS13D (peptide sequence: SLSLASTSR, peptide start residue: 2682) (UniProt Q5THJ4)”, for which the log2 fold change is 0.324.

Turning to “CCDC152 (peptide sequence: LYQDMQR, peptide start residue: 136) (UniProt Q4G0S7)”, the log2 fold change is 0.231.

As for “ERCC6L2 (peptide sequence: EHQGELFGIHNLFK, peptide start residue: 684) (UniProt Q5T890)”, the log2 fold change is -0.493.

Regarding “ZC3H12A (peptide sequence: LGAQASPGSR, peptide start residue: 381) (UniProt Q5D1E8)”, the log2 fold change is -0.2.

Turning to “ZBED5 (peptide sequence: VGILQSEDK, peptide start residue: 65) (UniProt Q49AG3)”, the log2 fold change stood at 0.118.

In the case of “SPECC1 (peptide sequence: VKNEEPTTQEGK, peptide start residue: 451) (UniProt Q5M775)”, the log2 fold change was -0.974.

On to “UniProt Q5CZA5 (peptide sequence: HDGLGTADSVCSR, peptide start residue: 158)”, for which the log2 fold change was determined as 0.411.

As to “UniProt Q4FZB7 (peptide sequence: LSNDHQQNQSK, peptide start residue: 21)”, the log2 fold change came to 0.226.

Consider “LARP7 (peptide sequence: SRPTSEGSDIESTEPQKQCSK, peptide start residue: 254) (UniProt Q4G0J3)”, for which the log2 fold change worked out at 0.878.

For “UniProt Q5VT25 (peptide sequence: EDLNKELVQASER, peptide start residue: 545)”, the log2 fold change worked out at 0.304.

Take “TMEM41B (peptide sequence: SQLGAHHTTPVGDGAAGTR, peptide start residue: 10) (UniProt Q5BJD5)”: the log2 fold change came to 0.0691.

Consider “SETMAR (peptide sequence: SDSNYIIAIR, peptide start residue: 188) (UniProt Q53H47)”, for which the log2 fold change is -0.793.

On to “UniProt Q5T2N8 (peptide sequence: LAQFDYGR, peptide start residue: 554)”, for which the log2 fold change is -0.425.

Regarding “ACSF3 (peptide sequence: EACSYTIHAEGDER, peptide start residue: 397) (UniProt Q4G176)”, the log2 fold change was -0.231.

Take “UniProt Q3YEC7 (peptide sequence: VPTHVPVCVLGNYR, peptide start residue: 165)”: the log2 fold change was -0.373.

Consider “UniProt Q5JPF3 (peptide sequence: DSDHISTR, peptide start residue: 525)”, for which the log2 fold change worked out at 0.0962.

As to “BOLA3 (peptide sequence: VTQILKEKFPR, peptide start residue: 36) (UniProt Q53S33)”, the log2 fold change is -0.343.

With “NT5DC1 (peptide sequence: VVYFGDSMHSDIFPAR, peptide start residue: 308) (UniProt Q5TFE4)”, the log2 fold change is -0.329.

As to “UniProt Q53GI3 (peptide sequence: CEECGETCHISNLFR, peptide start residue: 444)”, the log2 fold change was 0.371.

As to “NOL9 (peptide sequence: ITHSDVAPTHILYAVNASWVGLCK, peptide start residue: 559) (UniProt Q5SY16)”, the log2 fold change was determined as 0.345.

On to “AARS2 (peptide sequence: QGLWLDVHALGELQR, peptide start residue: 490) (UniProt Q5JTZ9)”, for which the log2 fold change stood at 0.315.

In the case of “ZC3H13 (peptide sequence: GRVPELPEK, peptide start residue: 565) (UniProt Q5T200)”, the log2 fold change was found to be 0.338.

With “AHDC1 (peptide sequence: ADKEPLEMARPPGPPR, peptide start residue: 1514) (UniProt Q5TGY3)”, the log2 fold change was -0.196.

“UniProt Q5T035 (peptide sequence: NLTEQNSYSNIPHEGK, peptide start residue: 411)”: the log2 fold change is 0.0747.

Values taken from the supplement of paper PMC12819154, “High-throughput peptide-centric local stability assay extends protein–ligand identification to membrane proteins, tissues and bacteria” (Nature Structural & Molecular Biology, 2025).
